# Assay results published in PubChem BioAssay AID248 (DTP/NCI, 2004).
# The list does not hold the whole screen: it gathers tests that were run many times, whatever their T/C, doses with no T/C, and many T/C values between a quarter and a half above the control. Further doses and runs are listed elsewhere. T/C is the treated group as % of the vehicle group. Some entries give survivors of the animals treated and no T/C: the source holds a T/C of zero for them, seemingly a mark for toxic or unscored doses. Some survivor counts are full or nearly so, which does not show that the dose was tolerated: the source hardly ever lists a survival T/C far under the control, and the zero likely stands for such cases as well. Counts of survivors are from the toxicity check (mostly the fifth day) where no day follows; animals may have died later. Schedule codes are those of the source, taken here to give the interval after Q, in days (D) or hours (H), and the number of doses after X. Some doses were run more than once; the values are given in rising order. Some schedules carry Z or #; the key to these is not given. Where survival is the endpoint, this PubChem deposit counts one and a half times the control or more as active, and values a quarter to a half above the control carry no call in these data; other NCI protocols may use other cut-offs.
# System: L1210 leukemia ip in BDF1 mice, survival T/C
# Experiment: NCI In Vivo Anticancer Drug Screen. Data for tumor model L1210 Leukemia (intraperitoneal) in B6D2F1 (BDF1) mice
# Conditions: T/C endpoint: mean survival time, higher T/C = longer survival
# [1] = dose: 200.0 mg/kg/injection, schedule: Q01DX009 (ip), vehicle: Klucel (hydroxypropylcellulose) (HPC)
# [2] = dose: 400.0 mg/kg/injection, schedule: Q01DX009 (ip), vehicle: Klucel (hydroxypropylcellulose) (HPC)
# [3] = dose: 400.0 mg/kg/injection, schedule: Q01DX001 (ip), vehicle: saline
# [4] = dose: 200.0 mg/kg/injection, schedule: Q01DX009 (ip), vehicle: saline
# [5] = dose: 100.0 mg/kg/injection, schedule: Q04DX003 (ip), vehicle: saline with Tween-80
# [6] = dose: 400.0 mg/kg/injection, schedule: Q01DX009 (ip), vehicle: saline
# [7] = dose: 100.0 mg/kg/injection, schedule: Q01DX001 (ip), vehicle: saline
# [8] = dose: 200.0 mg/kg/injection, schedule: Q01DX001 (ip), vehicle: saline
# [9] = dose: 200.0 mg/kg/injection, schedule: Q04DX002 (ip), vehicle: Klucel (hydroxypropylcellulose) (HPC)
# [10] = dose: 400.0 mg/kg/injection, schedule: Q04DX002 (ip), vehicle: Klucel (hydroxypropylcellulose) (HPC)
compound,measurement,setting,value
[O-][n+]1c(CCl)nc2cccc3c2c1-c1ccccc1-3,survivor count,"dose: 200.0 mg/kg/injection, schedule: Q04DX003 (ip), vehicle: saline with Tween-80",7 of 7
COc1ccc(N=NN(C)C(=O)c2ccccc2)cc1,T/C,[1],132 % of control
CCC(=O)Nc1cc(C)c(C)cc1C,survivor count,[2],2 of 6
CCCCc1cn(C(=O)CCCl)nn1,survivor count,"dose: 400.0 mg/kg/injection, schedule: Q04DX002 (ip), vehicle: saline with Tween-80",0 of 3
O=C(c1ccccc1)C1CNCCC1(O)c1ccccc1 (stereo not drawn),survivor count,"dose: 300.0 mg/kg/injection, schedule: Q04DX003 (ip), vehicle: acetone",5 of 6
CCCCCCC(=O)[O][Hg][c]1ccccc1,survivor count,"dose: 75.0 mg/kg/injection, schedule: Q01DX001 (ip), vehicle: other",2 of 6
same,survivor count,"dose: 150.0 mg/kg/injection, schedule: Q01DX001 (ip), vehicle: other",0 of 6
same,survivor count,"dose: 300.0 mg/kg/injection, schedule: Q01DX001 (ip), vehicle: other",0 of 6
CCOC(=O)CSc1ccc2ccccc2[n+]1-c1ccccc1,survivor count,[3],1 of 6
CCCNc1ncnc2c1cnn2C,survivor count,"dose: 100.0 mg/kg/injection, schedule: Q01DX009 (ip), vehicle: saline",6 of 6
same,survivor count,[4],1 of 6
same,survivor count,[3],0 of 6
Cc1cc(C)c(CCc2c(C)cc(C)cc2C)c(C)c1,survivor count,[5],6 of 6
CC(C)=CCC/C(C)=C/CN,survivor count,[4],0 of 6
same,survivor count,[6],0 of 6
CC(=O)Oc1ccccc1C1OC(=O)c2ccccc2N1C(C)=O (stereo not drawn),survivor count,"dose: 400.0 mg/kg/injection, schedule: Q01DX009 (ip), vehicle: saline with Tween-80",3 of 3
CCC(=O)OC1(c2ccccc2)CCN(CCCC(=O)c2ccccc2)CC1,survivor count,"dose: 80.0 mg/kg/injection, schedule: Q04DX003 (ip), vehicle: Klucel (hydroxypropylcellulose) (HPC)",2 of 6
CSc1nc(C)c(C)[n+](C)n1,survivor count,"dose: 300.0 mg/kg/injection, schedule: Q01DX001 (ip), vehicle: saline with Tween-80",1 of 6
Cc1nc(N)[nH]c(=O)c1CCCNc1ccc(CCC(=O)CCl)cc1,survivor count,"dose: 400.0 mg/kg/injection, schedule: Q01DX Z (ip), vehicle: carboxymethylcellulose (CMC)",6 of 6
CC[N+](C)(CC)CCNC(c1ccc(OC)c(OC)c1)C(Cl)(Cl)Cl (stereo not drawn),survivor count,"dose: 150.0 mg/kg/injection, schedule: Q01DX001 (ip), vehicle: saline",3 of 6
same,survivor count,"dose: 300.0 mg/kg/injection, schedule: Q01DX001 (ip), vehicle: saline",0 of 6
CC(=O)Nc1cc(C)cc(NC(C)=O)c1C,survivor count,"dose: 150.0 mg/kg/injection, schedule: Q01DX001 (ip), vehicle: carboxymethylcellulose (CMC)",6 of 6
CCOC(=O)c1cnc(NN)nc1Nc1cc(Cl)cc(Cl)c1,survivor count,[5],6 of 6
same,survivor count,"dose: 400.0 mg/kg/injection, schedule: Q04DX003 (ip), vehicle: saline with Tween-80",3 of 6
O=C(Nc1cccc(C(=O)O)c1)Nc1cccc(C(F)(F)F)c1,survivor count,[2],0 of 6
CCCC(CCN(C)C)(CNC(=O)CN(CC)CC)c1cccc2ccccc12 (stereo not drawn),survivor count,[4],4 of 6
same,survivor count,[6],0 of 6
C[N+](C)(C)CCCCCC[Si](C)(C)C,survivor count,"dose: 80.0 mg/kg/injection, schedule: Q01DX001 (ip), vehicle: saline",1 of 4
same,survivor count,[7],0 of 4
same,survivor count,[8],0 of 4
same,survivor count,[3],0 of 4
O=C(O)C(F)(F)F.[Cu+2],survivor count,"dose: 50.0 mg/kg/injection, schedule: Q04DX002 (ip), vehicle: saline",1 of 3
same,survivor count,"dose: 100.0 mg/kg/injection, schedule: Q04DX002 (ip), vehicle: saline",0 of 3
same,survivor count,"dose: 200.0 mg/kg/injection, schedule: Q04DX002 (ip), vehicle: saline",0 of 3
same,survivor count,"dose: 400.0 mg/kg/injection, schedule: Q04DX002 (ip), vehicle: saline",0 of 3
CCCCCCCCCCCCCCCC(=O)Nc1ccc(Cl)c(Cl)c1,survivor count,"dose: 400.0 mg/kg/injection, schedule: Q01DX001 (ip), vehicle: carboxymethylcellulose (CMC)",6 of 6
O=C(CCCN1CCC2(CC1)OC(=O)N(c1ccccc1)C2=O)c1ccc(F)cc1,survivor count,"dose: 400.0 mg/kg/injection, schedule: Q04DX003 (ip), vehicle: Klucel (hydroxypropylcellulose) (HPC)",0 of 6
O=C(O)C1CCC2CCCCC2[N-]1.O=C(O)C1CCC2CCCCC2[N-]1.[Zn+2] (stereo not drawn),survivor count,"dose: 100.0 mg/kg/injection, schedule: Q01DX009 (ip), vehicle: Klucel (hydroxypropylcellulose) (HPC)",6 of 6
same,survivor count,[1],6 of 6
same,survivor count,[2],6 of 6
CC(C)N=C(N)CSS(=O)(=O)O,survivor count,[9],1 of 3
same,survivor count,[10],0 of 3
C(=P(c1ccccc1)(c1ccccc1)c1ccccc1)[P+](c1ccccc1)(c1ccccc1)c1ccccc1.[Cl][Fe]([Cl])([Cl])[Br],survivor count,"dose: 3.12 mg/kg/injection, schedule: Q01DX009 (ip), vehicle: Klucel (hydroxypropylcellulose) (HPC)",1 of 6
same,survivor count,"dose: 6.25 mg/kg/injection, schedule: Q01DX009 (ip), vehicle: Klucel (hydroxypropylcellulose) (HPC)",0 of 6 and 6 of 6
same,survivor count,"dose: 12.5 mg/kg/injection, schedule: Q01DX009 (ip), vehicle: Klucel (hydroxypropylcellulose) (HPC)",0 of 6
same,survivor count,"dose: 25.0 mg/kg/injection, schedule: Q01DX009 (ip), vehicle: Klucel (hydroxypropylcellulose) (HPC)",0 of 6
same,survivor count,"dose: 25.0 mg/kg/injection, schedule: Q04DX002 (ip), vehicle: Klucel (hydroxypropylcellulose) (HPC)",3 of 3
same,survivor count,"dose: 50.0 mg/kg/injection, schedule: Q04DX002 (ip), vehicle: Klucel (hydroxypropylcellulose) (HPC)",0 of 3
same,survivor count,"dose: 100.0 mg/kg/injection, schedule: Q04DX002 (ip), vehicle: Klucel (hydroxypropylcellulose) (HPC)",0 of 3 and 1 of 3
same,survivor count,[9],0 of 3
same,survivor count,[10],0 of 3
Cc1ccc(NC(=O)N(CCBr)N=O)cc1,T/C,"dose: 177.0 mg/kg/injection, schedule: Q01DX001 (ip), vehicle: carboxymethylcellulose (CMC)",140 % of control
same,T/C,"dose: 200.0 mg/kg/injection, schedule: Q01DX001 (ip), vehicle: carboxymethylcellulose (CMC)",147 % of control
same,survivor count,"dose: 200.0 mg/kg/injection, schedule: Q01DX015 (ip), vehicle: carboxymethylcellulose (CMC)",5 of 6
same,survivor count,"dose: 600.0 mg/kg/injection, schedule: Q01DX001 (ip), vehicle: carboxymethylcellulose (CMC)",1 of 4
NCc1cc2c3c(c1)CCCN3CCC2,survivor count,"dose: 75.0 mg/kg/injection, schedule: Q01DX009 (ip), vehicle: saline",0 of 6
same,survivor count,[7],0 of 6
same,survivor count,"dose: 115.0 mg/kg/injection, schedule: Q01DX009 (ip), vehicle: saline",0 of 6
same,survivor count,"dose: 170.0 mg/kg/injection, schedule: Q01DX009 (ip), vehicle: saline",0 of 6
same,survivor count,[8],1 of 6
same,survivor count,[3],1 of 6
ClC1=C(Cl)C2(Cl)CC(Cl)C1C2(Cl)Cl (stereo not drawn),survivor count,"dose: 40.0 mg/kg/injection, schedule: Q01DX001 (ip), vehicle: acetone",5 of 6
same,survivor count,"dose: 75.0 mg/kg/injection, schedule: Q01DX001 (ip), vehicle: acetone",2 of 6
same,survivor count,"dose: 150.0 mg/kg/injection, schedule: Q01DX001 (ip), vehicle: acetone",2 of 6
same,survivor count,"dose: 300.0 mg/kg/injection, schedule: Q01DX001 (ip), vehicle: acetone",1 of 6
COc1ccc(OC)c(NC(=O)Nc2ccc(F)cc2)c1,survivor count,"dose: 50.0 mg/kg/injection, schedule: Q04DX002 (ip), vehicle: carboxymethylcellulose (CMC)",3 of 3
N/C(=N\O)c1cn(C2OC(CO)C(O)C2O)c2ncncc12 (stereo not drawn),T/C,"dose: 50.0 mg/kg/injection, schedule: Q01DX009 (ip), vehicle: saline",126 % of control
same,survivor count,"dose: 200.0 mg/kg/injection, schedule: Q01DX005 (ip), vehicle: saline",2 of 6
